# Assays:
# [1] = tested on: SH-SY5Y cells; test: SH-SY5Y cytotoxicity counter-screen (ATP content assay); format: cell-based, Human; conditions: Table S1; Inact. = no significant activity at the highest compound concentration (46 µM)
# Experimental: Human neuroblastoma SH-SY5Y cell line (Catalog No. CRL-2266) was purchased from ATCC (Manassas, VA). SH-SY5Y cell line was cultured in 175-cm^2 tissue culture flasks (Costar, Cambridge, MA) with 30 ml of growth medium at 37°C in a 5% CO2 humidified atmosphere. Growth medium was made with Dulbecco's Modified Eagle Medium: Nutrient Mixture F-12 with 10% fetal bovine serum (FBS). Growth medium was replaced every other day and cells were passed at 75% confluence.
# The ATPLite assay kit, consisting of luciferase/luciferin and detergent, was used to quantitate cellular ATP levels as a marker for cell viability (Table 1). For assay development, hyphal fragments or conidia in PBS were plated in a seeding density of 3,750, 7,500 and 15,000 cellular particles/well with a final volume of 5 µl/well using the Multidrop-Combi dispenser in white 1536-well plates. Conidia or hyphae fragments were incubated for 24 h at 37°C in a 5% CO2 humidified atmosphere. ATPLite detection reagents were added at 4 µl/well. The assay plates were incubated at room temperature for 15 minutes before reading luminescence intensity on a ViewLux plate reader (Perkin Elmer, Waltham, MA). Conidia suspended in RPMI medium were inoculated at concentrations of 62.5, 125 and 250 conidia/well with a final volume of 5 µl/well in white 1536-well plates. The conidia assay was developed and optimized in the same way as the hyphal assay. […]
# [2] = tested on: E. rostratum conidia; test: conidia growth inhibition ATP content assay (RPMI, 1536-well); format: cell-based; conditions: Exserohilum rostratum, Table S1; Inact. = no significant activity at the highest compound concentration (46 µM)
# Experimental: (§1) Conidia and hyphae of E. rostratum were obtained as described by Richard et al., with the following modifications. Briefly, conidia were harvested from Potato Dextrose Agar (PDA) cultured media with 0.05% Tween 80, and the conidial suspension was filtered using a Cell Strainer (100 µm, BD Falcon REF 352340). After centrifugation at 700g for 10 min, the suspension was decanted and conidia were resuspended at 1×10^5 per ml in RPMI and counted in a hemocytometer. Hyphae were harvested from yeast extract peptone dextrose (YPD) culture media with 0.05% Tween 80. Hyphal fragments were sized by vortexing 15 sec twice with 0.4 mm glassbeads, and the hyphae suspension was filtered by cheese cloth twice. […]
# (§2) The ATPLite assay kit, consisting of luciferase/luciferin and detergent, was used to quantitate cellular ATP levels as a marker for cell viability (Table 1). […] The assay plates were incubated at room temperature for 15 minutes before reading luminescence intensity on a ViewLux plate reader (Perkin Elmer, Waltham, MA). […]
# (§3) The primary screen data and curve fitting were analyzed using software developed internally at the NIH Chemical Genomics Center (NCGC). Total signals for cellular viability (100% cellular viability) were calculated from the wells with DMSO solvent and the complete cell killing (0% cellular viability) was calculated from 46 µM amphotericin B treated wells. […]
# [3] = tested on: E. rostratum hyphal fragments; test: hyphal fragment fungicidal ATP content assay (PBS, 1536-well); format: cell-based; conditions: Exserohilum rostratum; Table S1; Inact. = no significant activity in the primary screen; read-out: Hyphae IC50
# Experimental: as §1, §2, §3
compound,measurement,setting,value
Clc1ccc(COC(Cn2ccnc2)c2ccc(Cl)cc2Cl)cc1 (stereo not drawn) [Econazole nitrate],SH-SY5Y IC50,[1],Inact.
same,IC50,[2],13.2 µM
same,IC50,[3],11.8 µM

# From publication PMC3749181, “Rapid Identification of Antifungal Compounds against Exserohilum rostratum Using High Throughput Drug Repurposing Screens” (PLoS ONE, 2013)
